Results as given in the supplement of paper PMC12823440, “Inhibitors supercharge kinase turnover through native proteolytic circuits” (Nature, 2025).
Where a name gives a salt, the structure may show the parent alone. Some of the results follow. Hit calls seldom repeat between salt and free forms of one compound.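 Kinases, fused to nanoluciferase, were expressed in K562 cells; luminescence was measured every 4 h from 2 to 18 h as percent of control (DMSO = 100%, positive control = 0%). A time point is decreased if signal falls significantly (2 sigma). Hits were called by the authors by a rule that is not shown; the count of time points alone does not decide it.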

The chains behind the UniProt entries cited, without tags or fusion partners. Where a name states a change or a piece, a line headed by the entry shows the natural chain unless it says otherwise.
UniProt Q9UM73: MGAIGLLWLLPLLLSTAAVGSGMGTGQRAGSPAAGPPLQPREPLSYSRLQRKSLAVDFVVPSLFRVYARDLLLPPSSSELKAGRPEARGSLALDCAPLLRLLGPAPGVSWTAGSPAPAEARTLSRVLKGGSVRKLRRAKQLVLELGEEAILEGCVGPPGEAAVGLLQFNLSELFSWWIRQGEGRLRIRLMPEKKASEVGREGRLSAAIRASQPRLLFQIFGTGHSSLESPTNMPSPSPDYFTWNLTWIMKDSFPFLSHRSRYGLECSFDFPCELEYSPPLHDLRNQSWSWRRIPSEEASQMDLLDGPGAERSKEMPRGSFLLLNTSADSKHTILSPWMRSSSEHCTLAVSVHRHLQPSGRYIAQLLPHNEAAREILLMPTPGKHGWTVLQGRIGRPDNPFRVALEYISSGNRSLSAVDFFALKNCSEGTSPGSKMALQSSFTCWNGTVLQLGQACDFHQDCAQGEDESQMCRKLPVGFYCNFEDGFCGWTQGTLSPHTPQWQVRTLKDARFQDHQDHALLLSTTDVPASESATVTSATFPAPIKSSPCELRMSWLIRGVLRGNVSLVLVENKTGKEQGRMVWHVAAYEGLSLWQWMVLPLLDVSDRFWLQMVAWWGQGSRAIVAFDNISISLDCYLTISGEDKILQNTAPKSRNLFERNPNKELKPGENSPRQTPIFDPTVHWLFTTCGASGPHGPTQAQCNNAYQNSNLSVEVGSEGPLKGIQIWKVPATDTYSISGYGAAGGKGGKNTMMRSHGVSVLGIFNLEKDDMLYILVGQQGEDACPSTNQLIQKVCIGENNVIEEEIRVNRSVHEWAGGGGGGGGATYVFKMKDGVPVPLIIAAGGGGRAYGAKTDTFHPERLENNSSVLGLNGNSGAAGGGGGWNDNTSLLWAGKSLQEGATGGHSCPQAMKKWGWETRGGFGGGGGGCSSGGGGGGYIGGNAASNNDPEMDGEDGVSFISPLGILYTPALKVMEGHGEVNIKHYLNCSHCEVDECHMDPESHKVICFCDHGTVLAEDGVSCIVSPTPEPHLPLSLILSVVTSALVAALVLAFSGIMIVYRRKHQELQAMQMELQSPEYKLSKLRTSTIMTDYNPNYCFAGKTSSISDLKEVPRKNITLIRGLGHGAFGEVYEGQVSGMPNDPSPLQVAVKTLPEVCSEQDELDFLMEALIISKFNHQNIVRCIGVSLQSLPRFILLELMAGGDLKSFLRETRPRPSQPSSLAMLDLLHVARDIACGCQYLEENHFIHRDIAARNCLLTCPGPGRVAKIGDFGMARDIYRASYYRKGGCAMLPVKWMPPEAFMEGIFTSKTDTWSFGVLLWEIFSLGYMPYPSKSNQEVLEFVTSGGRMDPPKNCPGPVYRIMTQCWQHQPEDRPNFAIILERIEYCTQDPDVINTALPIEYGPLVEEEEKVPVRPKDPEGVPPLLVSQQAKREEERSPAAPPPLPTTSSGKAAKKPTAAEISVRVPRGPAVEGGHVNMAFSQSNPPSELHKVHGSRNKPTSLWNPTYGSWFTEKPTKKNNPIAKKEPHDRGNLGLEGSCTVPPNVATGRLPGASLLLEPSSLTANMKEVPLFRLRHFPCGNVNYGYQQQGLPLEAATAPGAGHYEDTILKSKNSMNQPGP
UniProt P10398: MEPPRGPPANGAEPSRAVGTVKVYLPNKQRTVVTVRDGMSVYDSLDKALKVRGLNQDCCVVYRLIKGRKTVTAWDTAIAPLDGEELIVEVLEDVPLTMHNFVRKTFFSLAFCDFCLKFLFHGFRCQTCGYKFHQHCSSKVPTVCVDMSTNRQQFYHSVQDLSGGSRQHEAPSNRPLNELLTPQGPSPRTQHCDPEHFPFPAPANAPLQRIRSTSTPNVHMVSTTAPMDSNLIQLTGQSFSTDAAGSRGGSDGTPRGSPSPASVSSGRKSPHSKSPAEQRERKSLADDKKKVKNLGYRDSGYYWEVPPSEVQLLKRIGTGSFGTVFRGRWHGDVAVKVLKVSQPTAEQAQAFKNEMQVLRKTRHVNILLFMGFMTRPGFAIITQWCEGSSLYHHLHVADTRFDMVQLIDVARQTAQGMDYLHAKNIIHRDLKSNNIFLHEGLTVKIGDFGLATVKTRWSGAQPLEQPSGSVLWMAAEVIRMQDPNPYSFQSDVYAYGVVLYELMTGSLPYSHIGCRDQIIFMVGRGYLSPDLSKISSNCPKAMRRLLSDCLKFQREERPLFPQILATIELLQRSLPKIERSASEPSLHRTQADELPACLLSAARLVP
UniProt O14965: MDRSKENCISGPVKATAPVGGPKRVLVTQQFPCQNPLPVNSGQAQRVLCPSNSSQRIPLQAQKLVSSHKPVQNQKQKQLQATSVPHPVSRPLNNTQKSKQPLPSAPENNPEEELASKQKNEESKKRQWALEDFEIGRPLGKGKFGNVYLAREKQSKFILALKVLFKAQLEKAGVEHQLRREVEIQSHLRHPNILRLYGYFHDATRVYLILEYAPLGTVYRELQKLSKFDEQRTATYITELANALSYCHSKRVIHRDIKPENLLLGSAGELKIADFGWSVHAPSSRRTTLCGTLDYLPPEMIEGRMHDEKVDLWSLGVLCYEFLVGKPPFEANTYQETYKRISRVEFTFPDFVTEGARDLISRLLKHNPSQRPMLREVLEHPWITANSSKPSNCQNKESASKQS
UniProt Q96GD4, whole entry: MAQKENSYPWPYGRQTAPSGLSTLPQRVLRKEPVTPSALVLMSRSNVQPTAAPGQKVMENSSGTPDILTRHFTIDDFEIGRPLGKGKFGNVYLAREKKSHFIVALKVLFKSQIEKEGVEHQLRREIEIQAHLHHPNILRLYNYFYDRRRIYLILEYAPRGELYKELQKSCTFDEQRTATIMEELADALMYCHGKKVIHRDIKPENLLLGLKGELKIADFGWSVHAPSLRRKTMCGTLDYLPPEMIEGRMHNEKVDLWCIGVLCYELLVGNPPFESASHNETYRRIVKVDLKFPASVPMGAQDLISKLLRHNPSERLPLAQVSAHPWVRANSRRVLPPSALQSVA
UniProt Q9UQB9: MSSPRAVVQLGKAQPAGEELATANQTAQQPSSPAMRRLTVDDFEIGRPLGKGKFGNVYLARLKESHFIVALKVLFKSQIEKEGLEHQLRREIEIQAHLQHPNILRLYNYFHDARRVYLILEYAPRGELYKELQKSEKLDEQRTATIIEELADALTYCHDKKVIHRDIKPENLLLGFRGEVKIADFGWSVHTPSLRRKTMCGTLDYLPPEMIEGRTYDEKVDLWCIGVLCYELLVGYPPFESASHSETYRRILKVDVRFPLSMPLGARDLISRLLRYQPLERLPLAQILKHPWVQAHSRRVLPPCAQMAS
UniProt P51451: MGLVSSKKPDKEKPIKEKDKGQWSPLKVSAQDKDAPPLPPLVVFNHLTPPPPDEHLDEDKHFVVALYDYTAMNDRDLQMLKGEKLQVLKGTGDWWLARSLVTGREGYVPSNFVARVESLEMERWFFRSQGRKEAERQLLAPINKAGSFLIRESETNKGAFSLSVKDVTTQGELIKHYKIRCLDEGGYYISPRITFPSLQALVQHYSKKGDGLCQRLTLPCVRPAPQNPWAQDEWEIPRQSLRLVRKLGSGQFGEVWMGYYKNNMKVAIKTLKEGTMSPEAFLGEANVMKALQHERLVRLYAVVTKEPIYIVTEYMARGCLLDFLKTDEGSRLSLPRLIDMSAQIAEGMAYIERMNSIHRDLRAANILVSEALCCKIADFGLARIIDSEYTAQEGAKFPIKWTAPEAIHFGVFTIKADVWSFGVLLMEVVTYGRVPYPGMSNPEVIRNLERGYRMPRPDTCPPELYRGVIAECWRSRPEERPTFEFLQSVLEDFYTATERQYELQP
UniProt P51813: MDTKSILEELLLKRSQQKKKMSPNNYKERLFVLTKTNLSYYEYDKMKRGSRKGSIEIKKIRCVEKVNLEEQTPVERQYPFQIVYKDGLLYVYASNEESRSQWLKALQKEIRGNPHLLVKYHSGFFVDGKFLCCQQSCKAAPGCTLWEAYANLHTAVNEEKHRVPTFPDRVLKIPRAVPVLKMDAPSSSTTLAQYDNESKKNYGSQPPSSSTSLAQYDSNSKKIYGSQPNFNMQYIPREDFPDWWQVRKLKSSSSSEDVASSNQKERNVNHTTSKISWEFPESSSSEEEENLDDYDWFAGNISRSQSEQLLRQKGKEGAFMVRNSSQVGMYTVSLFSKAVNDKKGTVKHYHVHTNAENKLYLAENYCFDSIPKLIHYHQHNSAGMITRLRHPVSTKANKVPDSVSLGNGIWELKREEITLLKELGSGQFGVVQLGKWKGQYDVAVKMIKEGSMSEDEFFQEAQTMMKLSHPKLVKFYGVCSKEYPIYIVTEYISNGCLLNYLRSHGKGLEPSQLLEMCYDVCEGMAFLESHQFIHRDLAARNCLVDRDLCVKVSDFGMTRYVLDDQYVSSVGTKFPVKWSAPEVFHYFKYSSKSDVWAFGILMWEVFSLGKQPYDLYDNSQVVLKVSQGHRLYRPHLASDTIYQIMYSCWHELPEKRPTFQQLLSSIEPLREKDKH
UniProt P15056, whole entry, looked up: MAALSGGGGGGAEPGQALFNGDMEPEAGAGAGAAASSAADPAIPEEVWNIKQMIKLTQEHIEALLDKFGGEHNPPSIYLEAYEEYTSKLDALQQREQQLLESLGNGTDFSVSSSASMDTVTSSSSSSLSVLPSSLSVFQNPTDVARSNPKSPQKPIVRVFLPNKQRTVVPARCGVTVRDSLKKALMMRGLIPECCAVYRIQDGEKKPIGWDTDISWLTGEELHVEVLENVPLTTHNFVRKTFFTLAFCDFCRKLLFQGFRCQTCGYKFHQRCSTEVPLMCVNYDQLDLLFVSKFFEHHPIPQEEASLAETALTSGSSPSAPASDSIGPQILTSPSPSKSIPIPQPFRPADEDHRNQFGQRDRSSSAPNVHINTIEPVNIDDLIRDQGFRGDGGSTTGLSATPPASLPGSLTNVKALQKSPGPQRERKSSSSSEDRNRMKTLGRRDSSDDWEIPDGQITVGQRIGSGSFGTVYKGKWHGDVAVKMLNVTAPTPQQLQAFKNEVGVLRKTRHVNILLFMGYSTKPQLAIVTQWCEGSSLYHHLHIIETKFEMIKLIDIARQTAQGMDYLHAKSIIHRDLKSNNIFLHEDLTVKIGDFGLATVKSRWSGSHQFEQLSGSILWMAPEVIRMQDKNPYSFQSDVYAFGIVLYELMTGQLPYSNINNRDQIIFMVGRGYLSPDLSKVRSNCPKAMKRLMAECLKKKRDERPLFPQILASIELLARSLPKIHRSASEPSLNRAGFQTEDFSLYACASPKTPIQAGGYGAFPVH
UniProt Q06187: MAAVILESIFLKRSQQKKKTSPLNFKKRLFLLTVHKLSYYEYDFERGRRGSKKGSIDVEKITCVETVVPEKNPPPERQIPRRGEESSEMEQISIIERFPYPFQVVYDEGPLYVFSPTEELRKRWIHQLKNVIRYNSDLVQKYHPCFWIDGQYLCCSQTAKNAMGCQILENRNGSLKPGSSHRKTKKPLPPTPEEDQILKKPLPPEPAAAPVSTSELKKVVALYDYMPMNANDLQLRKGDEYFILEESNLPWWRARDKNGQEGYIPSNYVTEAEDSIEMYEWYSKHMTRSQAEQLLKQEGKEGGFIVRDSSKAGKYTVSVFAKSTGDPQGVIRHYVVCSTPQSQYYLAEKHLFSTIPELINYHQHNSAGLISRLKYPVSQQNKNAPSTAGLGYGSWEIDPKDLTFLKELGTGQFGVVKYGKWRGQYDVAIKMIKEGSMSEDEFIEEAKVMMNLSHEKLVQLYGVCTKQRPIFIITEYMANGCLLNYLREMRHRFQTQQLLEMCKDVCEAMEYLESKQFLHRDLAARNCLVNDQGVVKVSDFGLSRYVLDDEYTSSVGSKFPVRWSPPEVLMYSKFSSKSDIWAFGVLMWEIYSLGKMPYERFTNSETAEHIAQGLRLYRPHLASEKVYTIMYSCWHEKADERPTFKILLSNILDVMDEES

Key:
Test in all cases: number of time points (of 5) at which kinase-Nluc abundance scored as decreased, DMSO-normalised (count); higher = more persistent destabilization
Settings in all cases: K562; 2-18 h
ALK = ALK (UniProt Q9UM73)
ARAF = ARAF (UniProt P10398)
AURKA = AURKA (UniProt O14965)
AURKB = AURKB (UniProt Q96GD4)
AURKC = AURKC (UniProt Q9UQB9)
BLK = BLK (UniProt P51451)
BMX = BMX (UniProt P51813)
BRAF = BRAF (UniProt P15056)
BRAF_V600E = tested on: BRAF_V600E
BTK = BTK (UniProt Q06187)

Row | Compound | number of time points (ALK) | number of time points (ARAF) | number of time points (AURKA) | number of time points (AURKB) | number of time points (AURKC) | number of time points (BLK) | number of time points (BMX) | number of time points (BRAF) | number of time points (BRAF_V600E) | number of time points (BTK)
1 | CNC[C@@H](NC(=O)c1ccc(-c2nc([C@H]3CC[C@H](O)[C@@H](F)C3)cnc2N)cc1F)c1cc(F)cc(Br)c1 [Rineterkib] (10 µM) | 0 | 0 | 0 | 0 | 0 | 0 | 0 | 0 | 0 | 0
2 | C=CC(=O)N1CCN(c2nc(OC[C@@H]3CCCN3C)nc3c2CCN(c2cccc4cccc(C)c24)C3)C[C@@H]1CC#N (2.5 µM) | 0 | 0 | 0 | 0 | 0 | 0 | 0 | 0 | 0 | 0
3 | O=C1C(=Cc2ccc(O)c(O)c2)Oc2ccccc21 (2.5 µM) | 0 | 0 | 0 | 0 | 0 | 0 | 0 | 0 | 0 | 0
4 | CC(C)(O)c1cc2nc(-c3cnc(N)nc3)nc(N3CCOCC3)c2s1 (2.5 µM) | 1 | 0 | 3 | 0 | 0 | 3 | 2 | 1 | 3 | 0
5 | C[C@H](CC[C@@H](O)C(C)(C)O)[C@H]1CC[C@@]2(C)[C@@H]3CC=C4[C@@H](CC[C@H](O)C4(C)C)[C@]3(C)[C@H](O)C[C@]12C [Mogrol] (10 µM) | 0 | 0 | 0 | 0 | 0 | 0 | 0 | 0 | 0 | 0
6 | C=CC(=O)Nc1cc(C(=O)NC)cc(-c2n[nH]c3ccccc23)c1 (10 µM) | 0 | 0 | 0 | 0 | 0 | 0 | 0 | 0 | 4 | 0
7 | COc1ccc(-c2cnc3c(-c4cccc5ncccc45)cnn3c2)cc1 (10 µM) | 0 | 0 | 0 | 0 | 0 | 0 | 0 | 0 | 0 | 0
8 | CNC(=O)c1c(C)oc2cc(Oc3ncnc4cc(OC)c(OC)cc34)ccc12 [Fruquintinib] (10 µM) | 0 | 0 | 0 | 0 | 0 | 0 | 0 | 0 | 0 | 0
9 | CN(C)CCCn1cc(C2=C(c3c[nH]c4ccccc34)C(=O)NC2=O)c2ccccc21 [Bisindolylmaleimide I] (2.5 µM) | 0 | 0 | 0 | 0 | 0 | 0 | 0 | 0 | 0 | 0
10 | O=c1cc(-c2ccc(O)cc2)oc2cc(O)c(O)c(O)c12 [Scutellarein] (10 µM) | 0 | 0 | 0 | 0 | 1 | 0 | 0 | 0 | 0 | 0
11 | CC(C)(C)S(=O)(=O)c1ccc2nccc(Nc3n[nH]c4ccc(F)cc34)c2c1 (10 µM) | 0 | 0 | 0 | 0 | 0 | 0 | 0 | 0 | 0 | 0
12 | CS(=O)(=O)N1CCc2c(-c3cnc(N)nc3)nc(N3CCOCC3)nc21 (10 µM) | 0 | 0 | 0 | 0 | 0 | 0 | 0 | 0 | 0 | 0
13 | COc1c(OCCCN2CCOCC2)ccc2c3n(c(=NC(=O)c4cnc(N)nc4)nc12)CCN3 [Copanlisib (dihydrochloride)] (10 µM) | 2 | 0 | 4 | 4 | 0 | 3 | 3 | 2 | 4 | 0
14 | COc1cccc(Nc2ncnn3ccc(CN4CC[C@@H](N)[C@H](O)C4)c23)c1 (2.5 µM) | 1 | 0 | 0 | 0 | 0 | 1 | 1 | 1 | 2 | 0
15 | C=CC(=O)Nc1cccc(Oc2nc(Nc3ccc(N4CCN(C)CC4)cc3)nc3ccsc23)c1 [Olmutinib] (2.5 µM) | 0 | 0 | 0 | 0 | 0 | 0 | 0 | 0 | 0 | 0
16 | O=C1NC(=O)C(c2ccccc2[N+](=O)[O-])=C1Nc1ccc(O)c(Cl)c1 (10 µM) | 0 | 0 | 0 | 0 | 0 | 0 | 0 | 0 | 0 | 0
17 | COc1ccc(C(=O)c2cn(C(C)C)c3ncnc(N)c23)cc1NC(=O)Nc1ccc(Cl)cc1Cl (10 µM) | 0 | 0 | 1 | 0 | 0 | 1 | 0 | 5 | 0 | 0
18 | COC[C@H]1Cn2cc(-c3nc(Nc4ccnn4C)ncc3C)nc2C(=O)N1Cc1ccc(F)c(F)c1 (10 µM) | 0 | 0 | 0 | 0 | 0 | 0 | 0 | 0 | 1 | 0

Reprinted from above for reference:
Row | Compound | number of time points (ALK) | number of time points (ARAF) | number of time points (AURKA) | number of time points (AURKB) | number of time points (AURKC) | number of time points (BLK) | number of time points (BMX) | number of time points (BRAF) | number of time points (BRAF_V600E) | number of time points (BTK)
10 | O=c1cc(-c2ccc(O)cc2)oc2cc(O)c(O)c(O)c12 [Scutellarein] (10 µM) | 0 | 0 | 0 | 0 | 1 | 0 | 0 | 0 | 0 | 0
11 | CC(C)(C)S(=O)(=O)c1ccc2nccc(Nc3n[nH]c4ccc(F)cc34)c2c1 (10 µM) | 0 | 0 | 0 | 0 | 0 | 0 | 0 | 0 | 0 | 0

Further compounds.

Row | Compound | number of time points (ALK) | number of time points (ARAF) | number of time points (AURKA) | number of time points (AURKB) | number of time points (AURKC) | number of time points (BLK) | number of time points (BMX) | number of time points (BRAF) | number of time points (BRAF_V600E) | number of time points (BTK)
19 | CN(C)CCCNc1ccn2ncc(-c3ccc4c(c3)OCO4)c2n1 (10 µM) | 0 | 0 | 0 | 0 | 0 | 0 | 0 | 0 | 0 | 0
20 | Cn1sc(=O)n(Cc2ccccc2)c1=O (10 µM) | 0 | 0 | 0 | 0 | 0 | 0 | 0 | 0 | 0 | 0
21 | N#C/C(=C\c1ccc[nH]1)c1ccc(Cl)c(Cl)c1 (2.5 µM) | 0 | 0 | 0 | 0 | 0 | 0 | 0 | 0 | 0 | 0
22 | Cn1c(=O)c(Oc2ccc(F)cc2F)cc2cnc(NC(CCO)CCO)nc21 [Pamapimod] (10 µM) | 0 | 0 | 0 | 0 | 0 | 0 | 0 | 0 | 0 | 0
23 | C=CC(=O)Nc1cccc(Nc2nc(Nc3ccc(Oc4ccnc(C(=O)NC)c4)cc3)ncc2F)c1 (2.5 µM) | 0 | 0 | 0 | 0 | 0 | 0 | 0 | 0 | 0 | 0
24 | NC(=O)c1cccc2c(N[C@H](CN3CCC3)c3ccc(Cl)c(C(F)(F)F)c3)ncnc12 (10 µM) | 0 | 0 | 0 | 0 | 0 | 0 | 0 | 0 | 0 | 0
25 | CCCCCC1CC1CC1CC1CCCCCCCC(=O)O (stereo not given) (10 µM) | 0 | 0 | 0 | 0 | 0 | 0 | 0 | 0 | 0 | 0
26 | CC(C)(C)S(=O)(=O)c1cc2c(Nc3ccc4scnc4c3)ccnc2cc1OCCOCCOCCOCCOCC(=O)Nc1cccc2c1CN(C1CCC(=O)NC1=O)C2=O (stereo not given) [PROTAC RIPK degrader-6] (10 µM) | 0 | 0 | 0 | 0 | 0 | 0 | 0 | 0 | 0 | 0
27 | CC(=O)c1cc(O)ccc1O [2,5-Dihydroxyacetophenone] (10 µM) | 0 | 0 | 0 | 0 | 0 | 0 | 0 | 0 | 0 | 0
28 | CNC(=O)c1ccc(-c2cnc3ncc(Cc4ccc5ncccc5c4)n3n2)cc1F [Capmatinib] (10 µM) | 0 | 0 | 0 | 0 | 0 | 0 | 0 | 0 | 0 | 0
29 | Nc1nc2c(ncn2COCCO)c(=O)[nH]1 [Acyclovir] (10 µM) | 0 | 0 | 0 | 0 | 0 | 0 | 0 | 0 | 0 | 0
30 | CS(=O)(=O)N1CCN(Cc2cn3cc(-c4cnc(N)nc4)nc(N4CCOCC4)c3n2)CC1 (10 µM) | 0 | 0 | 4 | 2 | 0 | 0 | 4 | 3 | 0 | 0
31 | C[C@@H]1CC[C@]2(C(=O)O)CC[C@]3(C)C(=CC[C@@H]4[C@@]5(C)CC[C@H](O)[C@@](C)(CO)[C@@H]5CC[C@]43C)[C@@H]2[C@]1(C)O [Rotundic acid] (10 µM) | 0 | 0 | 0 | 0 | 0 | 0 | 0 | 0 | 0 | 0
32 | CC(C)n1cnnc1-c1cccc(NC(=O)c2cc3ccc(F)cc3[nH]2)n1 (2.5 µM) | 3 | 0 | 3 | 2 | 0 | 3 | 3 | 0 | 4 | 0
33 | O=C(CCc1ccc2n1[B-](F)(F)[N+]1=C(c3ccc[nH]3)C=CC1=C2)ON1C(=O)CCC1=O [Py-BODIPY-NHS ester] (2.5 µM) | 0 | 0 | 0 | 0 | 0 | 0 | 0 | 0 | 0 | 0
34 | CC[C@@H]1CN(C(=O)NCC(F)(F)F)C[C@@H]1c1cnc2cnc3[nH]ccc3n12 [Upadacitinib] (10 µM) | 0 | 0 | 0 | 0 | 0 | 0 | 0 | 0 | 0 | 0
35 | Cc1cc(F)c(Nc2ncnc3cc(OCc4ccccc4)ccc23)cc1O (10 µM) | 0 | 0 | 0 | 0 | 0 | 0 | 0 | 0 | 0 | 0
36 | CCCC[C@H](CO)Nc1nc(NC)ncc1OC [Interferon receptor inducer-1] (10 µM) | 0 | 0 | 0 | 0 | 0 | 0 | 0 | 0 | 0 | 0
